Data reported in US7049135.
Results are given in words; binding and its absence hold for the method and conditions named. Some entries that bind do so weakly or less than the wild type. Sequences can lack the tags named with a protein.

Biological target: T1, IMPp75: intracellular domain of the p75 rat neurotrophin receptor (p75ICD) fused C-terminally to the infectivity-mediating domains (N1-N2) of gIII (filamentous phage; rat) (UniProt P07174)
T1 sequence (looked up): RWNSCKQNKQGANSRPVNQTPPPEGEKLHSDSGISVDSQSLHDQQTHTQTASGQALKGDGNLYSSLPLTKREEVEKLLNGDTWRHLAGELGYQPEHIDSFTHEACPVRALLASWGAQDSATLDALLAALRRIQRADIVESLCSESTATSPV
Assay: selectively-infective phage (SIP)

Q: CIVYHAHYLVAKC (peptide, not shown: large carriers) was tested. Which binding did it give?
A: binds
